Experimental data: PubChem BioAssay AID1259254 (NCATS, 2017)
Aim: 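Genome-wide screen for genes that prevent DNA re-replication in cancer cells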 (primary screen). System: human HCT116 colorectal cancer cells. Knock-down reagent: single siRNA against human genes. Timing: 3 days. Measurement: 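Nuclei stained with Hoechst and imaged; cell-cycle phase assigned by DNA content; G2 share scaled per plate, non-targeting siRNA 0%, GMNN siRNA 100%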. Reading the numbers: G2 robust z-score and G2 cells, % of GMNN control: higher = more G2 cells, more excess DNA replication. Rule for the call: 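An siRNA counts as active if its G2 robust z-score lies at least 5 MADs above the screen median; here such calls match roughly 38% of GMNN control or more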.
Here is an unselected part of about 59,000 reagents tested. In the full data, about 1,550 (2.6%) are marked active. 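G2 share is only a proxy for re-replication; each gene was hit by three separate siRNAs, and active genes were retested.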 Not all columns of the deposit are shown. Reagent sequences are not shown. Not stated in the record: the amount of reagent.

How did the screen score ZNF276 (GeneID 92822) [SID160754380]?
G2 robust z-score: 0.233; G2 cells, % of GMNN control: 4.6; Outcome: inactive

What is on record for ZNF276 (GeneID 92822) [SID160754381]?
G2 robust z-score: 1.48; G2 cells, % of GMNN control: 13.4; Outcome: inactive

How did the screen score ZNF276 (GeneID 92822) [SID160754382]?
G2 robust z-score: -0.256; G2 cells, % of GMNN control: 1.16; Outcome: inactive

How did the screen score TEX29 (GeneID 121793) [SID160755941]?
G2 robust z-score: -0.454; G2 cells, % of GMNN control: -0.229; Outcome: inactive

How did the screen score TEX29 (GeneID 121793) [SID160755942]?
G2 robust z-score: -0.506; G2 cells, % of GMNN control: -0.596; Outcome: inactive

What is on record for TEX29 (GeneID 121793) [SID160755943]?
G2 robust z-score: 0.125; G2 cells, % of GMNN control: 3.85; Outcome: inactive

What did the screen give for KCNN3 (GeneID 3782) [SID160776231]?
G2 robust z-score: -0.422; G2 cells, % of GMNN control: -0.00257; Outcome: inactive

With KCNN3 (GeneID 3782) [SID160776232], what does the deposit list?
G2 robust z-score: 0.514; G2 cells, % of GMNN control: 6.58; Outcome: inactive

For KCNN3 (GeneID 3782) [SID160776235], what was measured?
G2 robust z-score: 5.22; G2 cells, % of GMNN control: 39.7; Outcome: active

Laid out differently: 2 of the entries above.
{"gene":"ZNF276 (GeneID 92822)","PubChem SID":"SID160754382","G2 robust z-score":-0.256,"G2 cells, % of GMNN control":1.16,"Outcome":"inactive"}
{"gene":"TEX29 (GeneID 121793)","PubChem SID":"SID160755941","G2 robust z-score":-0.454,"G2 cells, % of GMNN control":-0.229,"Outcome":"inactive"}

More entries follow.
What did the screen give for BNIP3L (GeneID 665) [SID160728632]?
G2 robust z-score: 0.893; G2 cells, % of GMNN control: 9.25; Outcome: inactive

Which result is listed for BNIP3L (GeneID 665) [SID160728643]?
G2 robust z-score: -0.718; G2 cells, % of GMNN control: -2.09; Outcome: inactive

For BNIP3L (GeneID 665) [SID160728654], what was measured?
G2 robust z-score: -0.325; G2 cells, % of GMNN control: 0.681; Outcome: inactive

For TGFB1 (GeneID 7040) [SID160717983], what does the deposit list?
G2 robust z-score: 0.0289; G2 cells, % of GMNN control: 3.17; Outcome: inactive

Which result is listed for TGFB1 (GeneID 7040) [SID160717984]?
G2 robust z-score: 0.608; G2 cells, % of GMNN control: 7.25; Outcome: inactive

With TGFB1 (GeneID 7040) [SID160717985], how do the results read?
G2 robust z-score: 0.209; G2 cells, % of GMNN control: 4.44; Outcome: inactive

What is on record for PXDC1 (GeneID 221749) [SID160761751]?
G2 robust z-score: -0.255; G2 cells, % of GMNN control: 1.17; Outcome: inactive

With PXDC1 (GeneID 221749) [SID160761752], what was measured?
G2 robust z-score: -0.694; G2 cells, % of GMNN control: -1.92; Outcome: inactive

What is on record for PXDC1 (GeneID 221749) [SID160761753]?
G2 robust z-score: 0.996; G2 cells, % of GMNN control: 9.98; Outcome: inactive
